Laboratory results from PMC3115984.
These are yes or no findings as the source states them, for the method shown. In cells and extracts the contact can be indirect. Some binding calls cover weakened binding; strength is not graded here.

Amino acid sequences for entries named in this document (tags omitted). A change or cut given only in a name is not applied to a line headed by its entry. Chains listed by the source or under a name are the forms on record and can include a tag or linker. Residues count along the entry.
UniProt Q12846: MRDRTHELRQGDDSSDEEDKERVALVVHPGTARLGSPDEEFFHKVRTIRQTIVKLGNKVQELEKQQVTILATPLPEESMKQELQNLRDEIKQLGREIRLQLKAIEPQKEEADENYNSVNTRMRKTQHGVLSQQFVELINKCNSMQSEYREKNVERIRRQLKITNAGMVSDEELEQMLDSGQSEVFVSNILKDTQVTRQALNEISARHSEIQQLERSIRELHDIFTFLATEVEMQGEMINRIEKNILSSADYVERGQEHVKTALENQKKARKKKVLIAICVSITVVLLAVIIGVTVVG
syntaxin 4-Δ29 (myc-tagged human syntaxin 4 lacking the first 29 N-terminal amino acids): residues 30-297 of Q12846
UniProt A0A8I3N4I4: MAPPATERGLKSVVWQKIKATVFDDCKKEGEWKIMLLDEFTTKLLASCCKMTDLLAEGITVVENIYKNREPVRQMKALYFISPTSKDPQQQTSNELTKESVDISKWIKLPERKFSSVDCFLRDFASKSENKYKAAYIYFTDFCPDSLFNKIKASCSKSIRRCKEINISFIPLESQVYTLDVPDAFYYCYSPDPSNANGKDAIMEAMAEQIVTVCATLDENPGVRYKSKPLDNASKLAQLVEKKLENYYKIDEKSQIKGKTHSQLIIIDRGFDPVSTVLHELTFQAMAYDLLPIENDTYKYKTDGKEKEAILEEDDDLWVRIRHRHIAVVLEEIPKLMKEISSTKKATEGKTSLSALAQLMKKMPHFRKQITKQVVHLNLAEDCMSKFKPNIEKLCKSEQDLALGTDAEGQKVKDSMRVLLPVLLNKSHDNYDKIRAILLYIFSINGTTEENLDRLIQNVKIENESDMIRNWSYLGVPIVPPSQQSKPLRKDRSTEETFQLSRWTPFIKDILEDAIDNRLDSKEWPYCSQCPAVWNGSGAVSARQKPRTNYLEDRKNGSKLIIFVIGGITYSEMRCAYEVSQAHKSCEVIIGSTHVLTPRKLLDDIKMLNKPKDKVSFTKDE

Assays:
[1] = molecular target: syntaxin 4-WT (myc-tagged human syntaxin 4) (human) (UniProt Q12846); test: co-IP; lysates of polarized stable MDCK cell lines induced with DOX; anti-myc antibody cross-linked to protein A-Sepharose, overnight at 4°C; 50 mM Hepes-KOH pH 7.4, 50 mM potassium acetate, 1% Triton X-100; immunoblot for endogenous SNAP-23 and Munc18c
[2] = molecular target: syntaxin 4-Δ29 (myc-tagged human syntaxin 4 lacking the first 29 N-terminal amino acids) (human) (UniProt Q12846); test: as above

- binding [1]: binds
- binding [2]: no binding
Substance: Munc18c (endogenous, MDCK) (from UniProt A0A8I3N4I4 1-621)
